The whole screen tested about 330,000 compounds, of which about 7,700 (2.3%) were called active. Inconclusive results, whose numbers are uncertain, are shown with a selection of clear calls. Calls follow the shape of the dose curve; as a rule, active = well fitted inhibition curve with a large enough effect; inconclusive = small, poorly fitted or top-dose-only effect, or effect the other way; inactive = flat fitted curve, though single readings scatter. Where the call is inconclusive, the potency comes from a doubtful curve fit.
Assay: qHTS screen for small molecules that inhibit ELG1-dependent DNA repair in human embryonic kidney (HEK293T) cells expressing luciferase-tagged ELG1; also: nearly all actives have a fitted effect of over 55% in size
Settings: HEK293T ELG1-luciferase reporter, luminescence, 16 h, DNA damage induced by 5-fluorouridine; activity change, negative = inhibition: at 46.1 µM (top of the series)
How it was run: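 5-Fluorouridine DNA damage + compound/DMSO, 2,000 cells/well, 16 h, 37 °C/5% CO2. ONE-Glo, 30 min RT, luminescence. Readout = decrease in reporter signal.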
% is scaled to controls: 0 for no effect and ±100 for the full control effect; potency is read from the fitted curve at half-maximal effect.

Structure (SMILES)	Potency	activity change, negative = inhibition
CCCCNC(=O)CSc1nc2ccc(NC(=O)CSc3nnc(COc4ccccc4C)n3C)cc2s1	inconclusive: 2.59 µM [inhibitor, partial curve, poor fit]	–
Cc1ccc2nc(N(CCCN(C)C)C(=O)c3ccc(S(=O)(=O)N4CCCCCC4)cc3)sc2c1	inconclusive: 23.1 µM [inhibitor, single point]	–
CC(=O)Oc1ccc(N2C(=O)C3C(C2=O)C(C(=O)c2ccc(Cl)cc2)N2CCCC32)cc1 (stereo unspecified)	inconclusive: 1.16 µM [inhibitor, single point]	–
Cc1oc(-c2ccccc2)nc1C(=O)Nc1nccs1	inconclusive: 13 µM [activator, partial curve]	–
O=S(=O)([N-]c1nc2ccccc2nc1-[n+]1ccc(Cc2ccccc2)cc1)c1ccc(Br)s1	inconclusive: 32.6 µM [inhibitor, partial curve, poor fit]	–
COc1ccc(C(=O)N/N=C/c2ccc(OC(=O)c3ccccc3)cc2)cc1	inconclusive: 18.4 µM [activator, single point]	–
O=C(OC1CCN(c2ncc(C(F)(F)F)cc2Cl)CC1)c1ccc(Cl)cc1	–	inactive: 4.11%
CCC(=O)N1CCCc2cc(S(=O)(=O)N3CCN(c4ncccn4)CC3)ccc21	inconclusive: 18.4 µM [inhibitor, single point]	–
Cc1ccc(OCCN2C(=O)c3ccccc3C2=O)c([N+](=O)[O-])c1	inconclusive: 29.1 µM [activator, single point]	–
Cc1ccc(S(=O)(=O)NCCCCCC(N)=O)cc1	inconclusive: 13 µM [activator, partial curve, poor fit]	–
COc1ccc(C)c2sc(NC(=O)C3=COCCO3)nc12	inconclusive: 18.4 µM [activator, partial curve]	–
CCCCOC(=O)c1ccc(NC(=O)CN2C(=O)NC3(CCCCCC3)C2=O)cc1	–	inactive: 17.7%
Cc1cc(Cl)ccc1NC(=S)N1CCN(Cc2ccccc2)CC1	–	inactive: -9.3%
CC(=O)c1ccc(NC(=O)Cc2ccsc2)cc1	inconclusive: 18.3 µM [activator, partial curve]	–
O=C(/C=C/c1cccc(Cl)c1)Nc1ncccn1	inconclusive: 20.6 µM [activator, partial curve]	–
C#Cc1ccc([C@@H]2C=C(C(=O)N3CCN(Cc4ccccc4)CC3)O[C@H](OCC)[C@H]2CCCO)cc1	inconclusive: 16.4 µM [inhibitor, partial curve]	–
O=C(Cn1nc(-c2ccccc2)oc1=O)OCC(=O)c1ccc(F)c(F)c1	–	inactive: 9.95%
Cc1sc2c(c1C)c(=O)n(-c1ccccc1)c1nncn21	inconclusive: 29.1 µM [activator, partial curve, poor fit]	–
COc1ccc(/C=N/Nc2ccccc2C(=O)O)cc1	inconclusive: 0.461 µM [activator, full curve]	–
CCN(CC)S(=O)(=O)c1ccc(NC(=O)[C@@H](NC(=O)c2cc(OC)cc(OC)c2)C(C)C)cc1	inconclusive: 18.3 µM [inhibitor, single point]	–
Nc1c(-c2cccs2)cnn1-c1nc(-c2ccc(F)cc2)cs1	inconclusive: 9.2 µM [activator, single point]	–
Cc1ccc(Nc2nc3ccccc3s2)c(C)c1	inconclusive: 1.84 µM [activator, full curve]	–

Structure (SMILES)	Potency	activity change, negative = inhibition
Cc1cc(Nc2ccc(Cl)cc2)nc(N)n1	inconclusive: 11.6 µM [activator, partial curve]	–
CC(=O)c1cccc(Nc2nc(-c3cccnc3)cs2)c1	inconclusive: 6.51 µM [activator, single point]	–
COc1cccc(NC(=S)N/N=C2\CC3CCC2(C)C3(C)C)c1 (stereo unspecified)	inconclusive: 10.3 µM [activator, partial curve]	–
COc1ccc(Cn2c(-c3ccco3)nc3oc4ccccc4c(=O)c3c2=O)cc1	inconclusive: 3.66 µM [activator, full curve, poor fit]	–
O=C(N/C(=C\c1ccc(O)cc1)C(=O)N1CCCCC1)c1ccccc1	inconclusive: 8.91 µM [inhibitor, partial curve, poor fit]	–
O=[N+]([O-])c1ccc(NCCOc2ccccc2Cl)nc1	–	inactive: 26.3%
COCCn1c(C)cc(C(=O)CSc2nc3ccccc3c(=O)n2C(C)COC)c1C (stereo unspecified)	inconclusive: 29.1 µM [inhibitor, single point]	–
COc1ccc(CCNC(=O)c2ccc(-c3ccc([N+](=O)[O-])cc3)o2)cc1OC	inconclusive: 9.2 µM [inhibitor, partial curve]	–
Cc1ccc(NC(=O)CCNC(=O)c2ccccc2Cl)cc1S(=O)(=O)N1CCCCCC1	inconclusive: 35.5 µM [inhibitor, single point]	–
CCOc1ccc(CCNC(=O)c2cccc(S(=O)(=O)N3CCCC3)c2)cc1OCC	inconclusive: 13 µM [inhibitor, partial curve, poor fit]	–
Cc1ccc(Cn2nc(C)cc2C(=O)Nc2ccccc2Cl)cc1	inconclusive: 18.3 µM [activator, partial curve]	–
Cc1ccc(NC(=O)CN(C)S(=O)(=O)c2cccs2)c(Br)c1	inconclusive: 23.1 µM [activator, single point]	–
COc1ccc(Nc2c(C)cccc2C)cc1	inconclusive: 20.6 µM [activator, single point]	–
COc1ccccc1-n1c(O)c(C=NCc2ccccn2)c2ccccc2c1=O	inconclusive: 1.16 µM [activator, partial curve, poor fit]	–
O=C(CN1C(=O)C2CC=CCC2C1=O)NCC(=O)Nc1ccc(F)c(F)c1 (stereo unspecified)	–	inactive: 1.61%
O=[N+]([O-])c1cccc(-c2cc3ccccc3[nH]2)c1	inconclusive: 5.17 µM [activator, full curve, poor fit]	–
CC(=O)NCCN=C(C)c1sc2ccccc2c1O	inconclusive: 16.4 µM [activator, partial curve]	–
CN(c1ccc(-c2csc(NC(=O)C3CC(=O)N(Cc4ccco4)C3)n2)cc1)S(C)(=O)=O (stereo unspecified)	inconclusive: 18.3 µM [inhibitor, single point]	–
CCOC(=O)c1cnc(-n2cc(C)cn2)nc1Nc1ccccc1OC	active: 5.17 µM	–
Cc1ccc(-c2cc(C(=O)NNC(=O)c3csc(N4CCOCC4)n3)c3ccccc3n2)cc1	inconclusive: 2.31 µM [inhibitor, partial curve]	–
CC(O)CNc1nc2sc3c(c2c(=O)n1CCc1ccccc1)CCCCC3 (stereo unspecified)	–	inactive: -29.4%
CS(=O)(=O)N(CC(=O)NCc1ccco1)c1ccc(OCc2ccccc2)cc1	inconclusive: 5.17 µM [inhibitor, single point]	–

Structure (SMILES)	Potency	activity change, negative = inhibition
COc1ccc(C(=O)NC(C(=O)NCc2ccccn2)C(C)C)cc1 (stereo unspecified)	–	inactive: -0.877%
CS(=O)(=O)c1ccc2nc(N)sc2c1	inconclusive: 14.6 µM [activator, single point]	–
C#CCOCCOCCOCCNc1nc(N2CCN(C(=O)CCCCCCCCCCNC(=O)[C@H](CCCCN)n3cc(C)nn3)CC2)nc(N2CCN(C(=O)CCCCCCCCCCNC(=O)[C@@H]([C@H](C)CC)n3cc(CCCCCN)nn3)CC2)n1	inconclusive: 35.5 µM [inhibitor, single point]	–
Cn1c(NN)nc2sc3c(c2c1=O)CC(C)(C)OC3	–	inactive: -5.42%
Cc1[nH]n(S(=O)(=O)Cc2ccccc2)c(=O)c1N=Nc1ccccc1Cl	inconclusive: 2.31 µM [inhibitor, partial curve]	–
COc1ccc(S(=O)(=O)NCc2cccnc2)cc1C(=O)Nc1ccccc1	–	inactive: -10.4%
COc1ccc(C(=O)N/N=C2\CCc3ccccc32)cc1OC	–	inactive: -5.45%
O=C(NCC(=O)N1CCCCCCC1)c1ccccc1Cl	inconclusive: 18.3 µM [activator, partial curve]	–
COc1ccccc1NC(=O)Oc1cccc(OC(=O)c2ccccc2)c1	–	inactive: -3.08%
CC(C)(C)C(=O)NC(=S)Nc1ccc(F)cc1	inconclusive: 29.1 µM [activator, single point]	–
Cc1ccc(N(CC(=O)NCc2ccccc2)C(=O)c2csnn2)cc1	inconclusive: 7.3 µM [activator, partial curve]	–
COc1ccc(C(=O)N(C)Cc2ccccc2F)cc1S(=O)(=O)N1CCCC1	–	inactive: 5.03%
CCOC(=O)N1CCN(C(=O)CN(c2ccc(OCc3ccccc3)cc2)S(C)(=O)=O)CC1	–	inactive: -23.8%
Nc1ccc(C23CC4CC(CC(O)(C4)C2)C3)cc1	inconclusive: 18.4 µM [activator, partial curve]	–
COc1ccc(CNC(=O)CSc2nnnn2Cc2ccccc2)cc1	inconclusive: 20.6 µM [inhibitor, partial curve, poor fit]	–
Cc1ccc(NC(=O)CC2SC3=NCCCN3C2=O)c(C)c1 (stereo unspecified)	–	inactive: 17.1%
CC(C)(C)Cc1nnc(NC(=O)CSc2ccccc2)s1	inconclusive: 18.3 µM [activator, partial curve]	–
CN(CCOc1ccccc1)C(=O)CCc1c[nH]c2ccccc12	inconclusive: 20.6 µM [inhibitor, partial curve, poor fit]	–
O=C(N/N=C/c1cccc2ccccc12)c1ccncc1	–	inactive: 8.47%
COC(=O)c1cc2c(s1)-c1ccccc1CC2	inconclusive: 29.1 µM [activator, single point]	–
C=CCn1c(SCC(=O)Nc2ccc(F)cc2F)nnc1-c1cnccn1	inconclusive: 20.6 µM [activator, partial curve]	–
COCCCNS(=O)(=O)c1ccc2c3c(cccc13)C(=O)S2	inconclusive: 5.8 µM [inhibitor, partial curve]	–

Two compounds drawn at random from the list so far, as already listed:
Structure (SMILES)	Potency	activity change, negative = inhibition
Cc1[nH]n(S(=O)(=O)Cc2ccccc2)c(=O)c1N=Nc1ccccc1Cl	inconclusive: 2.31 µM [inhibitor, partial curve]	–
COc1ccc(S(=O)(=O)NCc2cccnc2)cc1C(=O)Nc1ccccc1	–	inactive: -10.4%
